# Results deposited as PubChem BioAssay AID493246 (Drosophila RNAi Screening Center, 2011)
# Purpose: 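Genes fly cells need to grow and stay alive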 (primary screen)
# System: Drosophila Kc and S2R+ cells
# Reagents: long dsRNA against Drosophila genes
# Detection: 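Cell number per well after knock-down, printed as raw plate values; calls were based on per-plate z-scores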
# Direction: Kc cell number and S2R+ cell number: higher = more cells remaining
# Rule for the call: 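Active when the per-plate z-score of cell number is 3 or more in the direction of fewer cells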
# The screen tested about 21,000 reagents; this is an unselected part of those that have a named target and a result. In the full data, 429 (2%) got an active call. 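Values are raw and not normalised between plates; calls rest on per-plate z-scores that were not deposited.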 A number with no mark means an inactive call. Not given: the amount of reagent, the time to read-out.
target gene,DRSC id,"Kc cell number, rep 1","Kc cell number, rep 2","S2R+ cell number, rep 1","S2R+ cell number, rep 2"
Aldh-III,DRSC06047,1.38e6,1.48e6,9.82e5,1.16e6
CG9932,DRSC03275,1.62e6,1.69e6,1.20e6,1.36e6
mIF3,DRSC06290,1.51e6,1.52e6,1.16e6,1.31e6
eIF4E3,DRSC10952,1.30e6,1.39e6,1.18e6,1.12e6
Wwox,DRSC03030,1.40e6,1.43e6,7.06e5,9.38e5
CG6638,DRSC10680,1.44e6,1.31e6,1.07e6,1.13e6
Art6,DRSC16583,1.32e6,1.46e6,1.17e6,1.29e6
CG8671,DRSC03102,1.56e6,1.67e6,1.36e6,5.81e5
CG8671,DRSC03103,1.58e6,1.67e6,1.38e6,5.66e5
DIP1,DRSC20818,1.60e6,1.63e6,1.18e6,1.27e6
CG14323,DRSC14802,1.64e6,1.70e6,1.28e6,1.37e6
Elp5,DRSC08547,1.37e6,1.44e6,9.27e5,1.16e6
bs,DRSC04676,5.81e5 (active),5.71e5,4.59e5,5.44e5
CG43316,DRSC06296,1.54e6,1.53e6,1.19e6,1.26e6
CG43316,DRSC06297,1.43e6,1.50e6,1.17e6,1.31e6
CG42342,DRSC13165,1.42e6,1.52e6,1.03e6,1.14e6
CG42342,DRSC15010,1.43e6,1.51e6,1.00e6,1.11e6
CG42342,DRSC15011,1.44e6,1.46e6,9.99e5,1.21e6
CG42342,DRSC15012,1.51e6,1.52e6,1.07e6,1.24e6
ed,DRSC00350,1.41e6,1.43e6,7.82e5,8.85e5
ed,DRSC00438,1.63e6,1.67e6,1.23e6,1.48e6
ed,DRSC00439,1.73e6,1.83e6,1.34e6,1.49e6
ed,DRSC00478,1.64e6,1.63e6,1.15e6,1.42e6
Hydr2,DRSC00607,1.32e6,1.32e6,9.04e5,1.05e6
ppk26,DRSC10991,1.67e6,1.59e6,1.09e6,1.20e6
hoe2,DRSC00459,1.60e6,1.50e6,1.24e6,1.38e6
muskelin,DRSC07273,1.69e6,1.67e6,1.26e6,1.37e6
CG5721,DRSC06945,1.27e6,1.33e6,1.15e6,1.20e6
CG34342,DRSC09756,1.52e6,1.62e6,1.28e6,1.26e6
Dna2,DRSC18254,5.79e5,,8.85e5,
Ir75b,DRSC10189,1.28e6,1.33e6,1.23e6,1.32e6
a5,DRSC00798,1.57e6,1.63e6,1.10e6,1.26e6
CG8661,DRSC20115,1.54e6,1.56e6,1.15e6,1.26e6
mim,DRSC05013,8.75e5 (active),1.20e6,5.65e5,6.18e5
sra,DRSC17015,1.60e6,1.70e6,1.34e6,1.36e6
CtsL2,DRSC06978,1.33e6,1.35e6,9.62e5,1.05e6
CG11658,DRSC09852,1.43e6,1.47e6,1.16e6,1.26e6
Cdk5alpha,DRSC03290,1.43e6,1.54e6,1.15e6,1.26e6
CG6508,DRSC02963,1.51e6,1.58e6,1.25e6,1.34e6
WRNexo,DRSC16278,1.59e6,1.65e6,1.28e6,1.38e6
CG15701,DRSC06572,1.62e6,1.75e6,1.26e6,1.43e6
Gmppa,DRSC07108,1.70e6,1.75e6,1.30e6,1.54e6
mael,DRSC11894,1.47e6,1.54e6,1.18e6,1.24e6
CG4596,DRSC15608,1.72e6,1.91e6,1.48e6,1.62e6
intr,DRSC14528,5.71e5,,8.54e5,
CG17528,DRSC07761,1.44e6,1.38e6,9.68e5,1.20e6
tobi,DRSC14435,1.80e6,1.87e6,1.06e6,1.08e6
CG13312,DRSC09983,1.27e6,1.46e6,1.14e6,1.19e6
FMRFa,DRSC07428,1.42e6,1.57e6,1.24e6,1.31e6
CG10710,DRSC09784,1.32e6,1.34e6,1.37e6,1.45e6
CG31323,DRSC14901,1.59e6,1.74e6,1.07e6,1.21e6
tos,DRSC03624,1.30e6,1.37e6,1.23e6,1.26e6
CG14856,DRSC14980,1.28e6,1.36e6,1.08e6,1.17e6
png,DRSC18582,1.49e6,1.50e6,9.68e5,1.07e6
CG18258,DRSC19798,1.49e6,1.53e6,1.22e6,1.35e6
SAK,DRSC11879,1.37e6,1.57e6,1.26e6,1.33e6
chrb,DRSC11335,1.34e6,1.41e6,1.01e6,1.14e6
egr,DRSC06233,1.53e6,1.52e6,1.25e6,1.21e6
Gr36c,DRSC02437,1.73e6,1.65e6,1.36e6,1.44e6

Hits (from the list above):
target gene,DRSC id,"Kc cell number, rep 1","Kc cell number, rep 2","S2R+ cell number, rep 1","S2R+ cell number, rep 2"
bs,DRSC04676,5.81e5 (active),5.71e5,4.59e5,5.44e5
mim,DRSC05013,8.75e5 (active),1.20e6,5.65e5,6.18e5
